{
  "sequences": {"note": "Sequences of proteins named here, by UniProt entry; tags and fusion partners are left off. A change or cut given only in a name is not applied to a line headed by its entry.", "UniProt Q14994": "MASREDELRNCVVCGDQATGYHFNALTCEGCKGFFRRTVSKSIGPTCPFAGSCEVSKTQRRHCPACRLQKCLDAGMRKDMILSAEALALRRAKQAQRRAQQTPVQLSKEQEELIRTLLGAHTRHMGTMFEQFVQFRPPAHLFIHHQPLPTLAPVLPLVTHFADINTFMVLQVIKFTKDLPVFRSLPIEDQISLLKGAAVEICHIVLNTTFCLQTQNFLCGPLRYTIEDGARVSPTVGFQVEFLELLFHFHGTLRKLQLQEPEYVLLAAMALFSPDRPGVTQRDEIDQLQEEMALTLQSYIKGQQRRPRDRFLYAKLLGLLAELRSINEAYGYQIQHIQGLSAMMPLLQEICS", "UniProt P03372, whole entry, looked up": "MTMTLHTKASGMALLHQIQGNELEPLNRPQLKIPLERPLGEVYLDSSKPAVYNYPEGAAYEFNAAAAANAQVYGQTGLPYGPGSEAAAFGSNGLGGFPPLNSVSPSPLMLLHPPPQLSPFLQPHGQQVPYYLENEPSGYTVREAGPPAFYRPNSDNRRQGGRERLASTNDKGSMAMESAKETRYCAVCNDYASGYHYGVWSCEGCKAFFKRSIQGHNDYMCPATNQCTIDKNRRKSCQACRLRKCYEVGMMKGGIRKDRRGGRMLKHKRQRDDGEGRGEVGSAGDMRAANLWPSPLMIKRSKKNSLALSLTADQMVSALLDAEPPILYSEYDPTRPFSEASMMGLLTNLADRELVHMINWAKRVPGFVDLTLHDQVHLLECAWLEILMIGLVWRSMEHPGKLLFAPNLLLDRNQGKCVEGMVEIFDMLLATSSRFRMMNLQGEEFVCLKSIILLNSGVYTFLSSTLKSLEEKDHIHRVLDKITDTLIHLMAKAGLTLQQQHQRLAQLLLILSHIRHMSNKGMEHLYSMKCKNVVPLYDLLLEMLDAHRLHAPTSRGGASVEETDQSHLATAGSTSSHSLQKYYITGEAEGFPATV", "UniProt Q92731, whole entry, looked up": "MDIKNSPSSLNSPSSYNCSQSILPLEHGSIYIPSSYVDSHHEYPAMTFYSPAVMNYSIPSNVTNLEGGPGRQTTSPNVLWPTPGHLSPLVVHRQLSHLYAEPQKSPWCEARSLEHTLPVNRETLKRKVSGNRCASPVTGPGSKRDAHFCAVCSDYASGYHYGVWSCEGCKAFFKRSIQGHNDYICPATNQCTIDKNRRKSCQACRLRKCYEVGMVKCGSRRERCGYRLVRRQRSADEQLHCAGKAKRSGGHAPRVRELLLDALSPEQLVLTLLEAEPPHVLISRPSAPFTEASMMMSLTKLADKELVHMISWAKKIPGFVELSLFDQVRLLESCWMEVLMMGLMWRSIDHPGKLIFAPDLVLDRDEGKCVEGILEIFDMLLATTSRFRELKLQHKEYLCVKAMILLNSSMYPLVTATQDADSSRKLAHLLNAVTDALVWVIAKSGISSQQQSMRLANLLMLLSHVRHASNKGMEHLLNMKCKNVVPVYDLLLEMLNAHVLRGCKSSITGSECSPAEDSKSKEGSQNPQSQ", "UniProt Q07869": "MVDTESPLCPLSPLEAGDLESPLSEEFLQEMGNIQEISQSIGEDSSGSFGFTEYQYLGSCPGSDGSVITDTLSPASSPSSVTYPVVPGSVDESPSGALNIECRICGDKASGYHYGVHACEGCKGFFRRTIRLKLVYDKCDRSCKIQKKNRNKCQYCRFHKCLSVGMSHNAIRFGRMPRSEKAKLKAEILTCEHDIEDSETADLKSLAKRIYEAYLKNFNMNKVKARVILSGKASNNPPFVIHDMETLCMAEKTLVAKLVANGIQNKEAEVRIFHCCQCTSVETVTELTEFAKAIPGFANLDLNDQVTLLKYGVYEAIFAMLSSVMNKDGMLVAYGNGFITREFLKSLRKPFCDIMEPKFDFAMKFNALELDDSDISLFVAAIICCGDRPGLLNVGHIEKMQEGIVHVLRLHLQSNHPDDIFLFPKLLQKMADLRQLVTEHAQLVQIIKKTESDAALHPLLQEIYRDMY", "UniProt P07727": "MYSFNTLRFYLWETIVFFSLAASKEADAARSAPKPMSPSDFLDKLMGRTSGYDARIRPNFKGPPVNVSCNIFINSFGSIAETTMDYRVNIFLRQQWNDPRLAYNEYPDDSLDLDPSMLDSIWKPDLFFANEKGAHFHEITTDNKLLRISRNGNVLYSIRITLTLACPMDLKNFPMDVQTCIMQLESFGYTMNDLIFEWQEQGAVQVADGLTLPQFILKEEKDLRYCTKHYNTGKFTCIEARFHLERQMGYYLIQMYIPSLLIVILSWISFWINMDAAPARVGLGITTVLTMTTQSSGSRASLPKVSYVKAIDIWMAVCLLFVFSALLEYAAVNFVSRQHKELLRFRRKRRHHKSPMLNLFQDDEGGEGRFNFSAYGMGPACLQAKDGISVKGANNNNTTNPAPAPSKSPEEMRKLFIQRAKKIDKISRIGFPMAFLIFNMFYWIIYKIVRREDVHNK", "UniProt P49884, whole entry, looked up": "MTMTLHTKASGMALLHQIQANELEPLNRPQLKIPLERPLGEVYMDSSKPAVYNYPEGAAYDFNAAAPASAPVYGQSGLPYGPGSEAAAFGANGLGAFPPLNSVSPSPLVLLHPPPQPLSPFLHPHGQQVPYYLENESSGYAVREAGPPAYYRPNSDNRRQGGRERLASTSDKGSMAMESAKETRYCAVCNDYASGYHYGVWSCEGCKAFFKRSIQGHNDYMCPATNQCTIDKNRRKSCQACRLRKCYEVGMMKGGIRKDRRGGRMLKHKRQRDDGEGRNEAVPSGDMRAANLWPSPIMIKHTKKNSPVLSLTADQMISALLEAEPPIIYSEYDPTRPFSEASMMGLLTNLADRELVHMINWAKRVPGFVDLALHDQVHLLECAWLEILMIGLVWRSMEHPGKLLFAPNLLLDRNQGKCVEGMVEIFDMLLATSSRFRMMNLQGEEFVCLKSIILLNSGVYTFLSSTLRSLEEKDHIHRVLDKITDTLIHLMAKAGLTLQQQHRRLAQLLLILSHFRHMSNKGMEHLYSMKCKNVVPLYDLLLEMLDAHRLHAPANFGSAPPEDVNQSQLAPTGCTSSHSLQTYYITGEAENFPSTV"},
  "source": "PubChem BioAssay (EPA / NIEHS)",
  "key": {"NCBI gene 100848466": {"system": "NCBI gene 100848466", "test": "NVS_NR_bPR: NovaScreen (NVS) Nuclear Receptor Binding Assay for bovine Progextron Receptor (PR) (AID 2283343);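 as to AC50: actives lower bound radioligand signal below DMSO meaning displacement of the label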", "procedure,_shortened": "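Bovine uterine membrane preparation, cell-free; radioligand competitive displacement measured by scintillation counting 18 hours after dosing. Loss of signal versus DMSO baseline indicates binding; primary HTS single concentration 25 uM in duplicate, actives followed in concentration series.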"}, "[1]": {"biological_target": "human Constitutive Androstane Receptor (CAR), NR1I3 (gene 9970) (UniProt Q14994)", "test": "NVS_NR_hCAR_Antagonist: NovaScreen (NVS) Nuclear Receptor Binding Assay for human Constitutive Androstane Receptor Antagonism (CAR) (AID 2283344)", "procedure,_shortened": "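Cell-free TR-FRET binding read 1 h after dosing, antagonist mode; loss of signal versus DMSO baseline. Primary screen in duplicate at a single 25 uM; actives retested in concentration series.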"}, "[2]": {"biological_target": "Estrogen receptor (Homo sapiens) (UniProt P03372)", "test": "NVS_NR_hER: NovaScreen (NVS) Nuclear Receptor Binding Assay for human Estrogen Receptor (ER) (AID 2283348)", "procedure,_shortened": "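Cell-free radioligand binding with protein extracted from MCF7 cells; scintillation counting 18 hours after dosing. Loss of signal versus DMSO baseline read as displacement; primary single-concentration screen at 25 uM in duplicate, actives retested in concentration series.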"}, "[3]": {"system": "guinea pig Histamine Receptor (H2), gene 100729734", "test": "NVS_GPCR_gH2: NovaScreen (NVS) G Protein-Coupled Receptor Assay for guinea pig Histamine Receptor (H2) (AID 2283342)", "procedure,_shortened": "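Radioligand displacement on guinea pig striatal membranes, 1 h after dosing, filter-based scintillation counting; loss of signal versus DMSO. Single-point screen at 25 uM in duplicate, then concentration-response up to 50 uM.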"}, "[4]": {"biological_target": "Estrogen receptor beta (Homo sapiens) (UniProt Q92731)", "test": "OT_ER_ERbERb_0480: Odyssey Thera (OT) 8-hour HEK293T Protein-Complementation Assay for Estrogen Receptor-beta/-beta Homodimer (AID 2283357)", "procedure,_shortened": "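Readout: increase in mean fluorescence intensity (nucleus for agonists; nucleus plus cytoplasm for antagonists) relative to DMSO, from a reporter-fragment complementation of human ER-beta LBD homodimer in HEK293T cells dosed 8 hours.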"}, "[5]": {"biological_target": "human Peroxisome Proliferator-activated Receptor alpha (PPARa), PPARA (gene 5465) (UniProt Q07869)", "test": "NVS_NR_hPPARa: NovaScreen (NVS) Nuclear Receptor Binding Assay for human Peroxisome Proliferator-activated Receptor alpha (PPARa) (AID 2283359)", "procedure,_shortened": "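Cell-free binding assay with extracted human protein, read by TR-FRET 1 h after chemical dosing. Loss of signal relative to DMSO baseline indicates binding. Primary screen used duplicate single concentration (25 uM); actives followed up in concentration series.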"}, "[6]": {"biological_target": "rat Glycine Receptor, Strychnine-sensitive (GlyRStrySens), Glra1 (gene 25674) (UniProt P07727)", "test": "NVS_LGIC_rGlyRStrySens: NovaScreen (NVS) Ligand-Gated Ion Channel Assay for rat Glycine Receptor, Strychnine-sensitive (GlyRStrySens) (AID 2283341)", "procedure,_shortened": "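Radioligand displacement on rat spinal cord membranes, 1 hr, filter scintillation read-out. Single-concentration duplicate screen at 25 uM; chemicals meeting threshold (e.g., 30% inhibition) rerun in concentration-response up to 50 uM. Loss of binding fitted versus DMSO.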"}, "[7]": {"biological_target": "bovine Estrogen Receptor (ER), ESR1 (gene 407238) (UniProt P49884)", "test": "NVS_NR_bER: NovaScreen (NVS) Nuclear Receptor Binding Assay for bovine Estrogen Receptor (ER) (AID 2283345);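 also: actives lower the bound radioligand count which means they displace the ER ligand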", "procedure,_shortened": "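Displacement of a radioligand from estrogen receptor in bovine uterine membrane preparations; scintillation signal taken at 18 hours, DMSO as baseline. Single-concentration duplicates (25 uM) preceded concentration-response follow-up of actives.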"}, "[8]": {"biological_target": "T1, Estrogen receptor (Homo sapiens) + Estrogen receptor beta (Homo sapiens) (UniProt P03372+Q92731)", "test": "OT_ER_ERaERb_1440: Odyssey Thera (OT) 24-hour HEK293T Protein-Complementation Assay for Estrogen Receptor-alpha/-beta Homodimer (AID 2283356);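 also: heteromer of ER alpha and ER beta binding domains; hits raise reporter fluorescence and both agonists and antagonists give an increase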", "procedure,_shortened": "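Fragment complementation between ER alpha (310-547) and ER beta (263-489) ligand-binding domains in HEK293T cells; signal read 24 h post-dosing by laser scanning cytometer. Gain of fluorescence relative to DMSO fitted.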"}, "[9]": {"biological_target": "T1, Estrogen receptor (Homo sapiens) + Estrogen receptor beta (Homo sapiens)", "test": "OT_ER_ERaERb_0480: Odyssey Thera (OT) 8-hour HEK293T Protein-Complementation Assay for Estrogen Receptor-alpha/-beta Heterodimer (AID 2283352)", "procedure,_shortened": "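Fluorescence increase from reconstituted reporter fragments, quantified by laser scanning cytometer, reflects ER-alpha/ER-beta heterodimer formation in human HEK293T cells. Exposure 8 h; positive-direction fitting against DMSO vehicle.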"}},
  "note": "Values joined by “and” are separate entries in the source; they are usually repeats but may differ in a detail not shown here. Equal entries are not always repeated. The shares of active, inactive and inconclusive entries below differ from those in the screen. For some of these results: Potencies beside an inconclusive call are fits to weak or partial responses and may not hold up. Active and inactive are the calls of the source. The calls were made as follows: active = hit-call score of the fitted dose curve at least 0.9, where 1 is the maximum; inconclusive = response in the unintended direction; inactive = score below 0.9.",
  "data": [
    {"smiles": "Cc1ccc2oc(CN(Cc3ccccc3)C(=O)Nc3c(F)cc(F)cc3F)c(-c3ccc(Cl)cc3)c2c1", "values": [
      {"measurement": "outcome", "setting": "NCBI gene 100848466", "result": "inactive"}
    ]},
    {"smiles": "CC1=C(/C=C/C(C)=C/C=C/C(C)=C/CO)C(C)(C)CCC1", "values": [
      {"measurement": "AC50", "setting": "[1]", "result": "inconclusive: 26.1 µM"},
      {"measurement": "outcome", "setting": "[2]", "result": "inactive"}
    ]},
    {"smiles": "CCCCC(CC)COP(=O)(OCC(CC)CCCC)OCC(CC)CCCC", "note": "(configuration not stated)", "values": [
      {"measurement": "AC50", "setting": "[3]", "result": "inconclusive: 0.182 µM"},
      {"measurement": "AC50", "setting": "[4]", "result": "inconclusive: 16.9 µM"}
    ]},
    {"smiles": "COc1cc(-c2nc(NC(=O)c3cc4cc(C)cc(C)c4n3CC(=O)O)sc2CCC2CCCCC2)c(OC)cc1Cl", "values": [
      {"measurement": "AC50", "setting": "[1]", "result": "active: 3.54 µM"},
      {"measurement": "AC50", "setting": "[2]", "result": "inconclusive: 21.1 µM"},
      {"measurement": "AC50", "setting": "[5]", "result": "inconclusive: 21.1 µM"}
    ]},
    {"smiles": "O=C(O)Cc1cc(I)c(Oc2ccc(O)c(I)c2)c(I)c1", "values": [
      {"measurement": "outcome", "setting": "[6]", "result": "inactive"},
      {"measurement": "AC50", "setting": "[5]", "result": "active: 46.3 µM and inconclusive: 142 nM and inconclusive: 22 nM"}
    ]},
    {"smiles": "CC(C)CCCCCCCOC(=O)CCCCC(=O)OCCCCCCCC(C)C", "values": [
      {"measurement": "AC50", "setting": "NCBI gene 100848466", "result": "inconclusive: 4.92 µM"}
    ]},
    {"smiles": "O=C(COc1ccc(Cl)cc1)N1CCN(Cc2ccc3c(c2)OCO3)CC1", "values": [
      {"measurement": "AC50", "setting": "[7]", "result": "inconclusive: 25 µM"}
    ]},
    {"smiles": "Cn1cc[nH]c1=S", "values": [
      {"measurement": "outcome", "setting": "NCBI gene 100848466", "result": "inactive"},
      {"measurement": "outcome", "setting": "[8]", "result": "inactive"}
    ]},
    {"smiles": "CC(C)(C)C(=O)CCc1ccc(Cl)cc1", "values": [
      {"measurement": "AC50", "setting": "[7]", "result": "inconclusive: 0.149 µM"}
    ]},
    {"smiles": "CC(=O)OCCC(C)C", "values": [
      {"measurement": "AC50", "setting": "NCBI gene 100848466", "result": "inconclusive: 0.35 µM"}
    ]},
    {"smiles": "CCCCCCCCCCCCCC[n+]1ccccc1", "values": [
      {"measurement": "AC50", "setting": "[7]", "result": "inconclusive: 25 µM"}
    ]},
    {"smiles": "CCCCCCC(=O)OCC", "values": [
      {"measurement": "outcome", "setting": "[7]", "result": "inactive"}
    ]},
    {"smiles": "CC/C(=C\\C(=N/O)C(N)=O)C(C)[N+](=O)[O-]", "note": "(configuration not stated)", "values": [
      {"measurement": "outcome", "setting": "[6]", "result": "inactive"},
      {"measurement": "AC50", "setting": "[9]", "result": "inconclusive: 50 µM"},
      {"measurement": "outcome", "setting": "[8]", "result": "inactive"}
    ]},
    {"smiles": "Nc1nc(Cl)nc2c1ncn2[C@H]1C[C@H](O)[C@@H](CO)O1", "values": [
      {"measurement": "AC50", "setting": "[1]", "result": "inconclusive: 25 µM"}
    ]}
  ]
}
